Source: patent US7582618B2 (priority 2002, dated 2009)

Tested on: HepG2 cells
Assay: Incorporation of drug into cellular RNA and DNA
Type: cell-based, human
Settings: HepG2, 10 μM labeled drug, 30 hours; for Incorporated drug amount pmole/μg DNA: into cellular DNA; for Incorporated drug amount pmole/μg RNA / incorporation into RNA: into cellular RNA

SMILES	Incorporated drug amount pmole/μg DNA	Incorporated drug amount pmole/μg RNA	incorporation into RNA
Cc1cn([C@H]2C[C@H](N=[N+]=[N-])[C@@H](CO)O2)c(=O)[nH]c1=O [ZDV, zidovudine]	0.103 pmole/μg and 0.103 ± 0.0123^a pmole/μg	0.0009 ± 0.0003^a pmole/μg	0.0009 pmole/1 g
Nc1ccn([C@H]2CC[C@@H](CO)O2)c(=O)n1 [ddC, zalcitabine]	0.0055 pmole/μg and 0.0055^b pmole/μg	0.0013^b pmole/μg	0.0013 pmole/1 g
CC1(O)C(O)C(CO)OC1n1ccc(N)nc1=O (stereo not shown) [mCyd, 4-Amino-1-(3,4-dihydroxy-5-hydroxymethyl-3-methyl-tetrahydro-furan-2-yl)-1H-pyrimidine-2-one]	0.0013-0.0014 pmole/μg and 0.0013 ± 0.0008^a pmole/μg	0.0013-0.0014 pmole/μg and 0.0014 ± 0.0008^a pmole/μg	–
NC(=O)c1ncn([C@@H]2O[C@H](CO)[C@@H](O)[C@H]2O)n1 [ribavirin, 1-β-D-ribofuranosyl-1-1,2,4-triazole-3-carboxamide, reference compound]	0.0120^b pmole/μg	0.0132^c pmole/μg	–

Several values for one entry are separate records, joined by “and”; a condition that tells them apart may be missing. Identical values can stand only once. Marks after values point to notes of the source that are not given here.
